Article doi:10.1101/2021.07.06.451223 (bioRxiv, 2021)
Results are given in words; binding and its absence hold for the method and conditions named. In cells and extracts the contact can be indirect. Some results given as binding are weak or reduced against the parent protein; the word gives no strength. Values belong to the substance of their own block, whether it stands above or below them.

Key:
Test in all cases: FRET or BRET
[1] = target: CASQ1-GFP (CASQ1 amino acids 1-396 with C-terminal GFP) (human) (UniProt P31415)
[2] = target: ssGFP-CASQ1 (CASQ1 amino acids 1-396 with EGFP between residues 49 and 50) (human) (UniProt P31415)
[3] = target: ssGFP-CASQ1 S248/369E (human) (UniProt P31415)

binding [1]: binds
Substance: CASQ1-GFP (CASQ1 amino acids 1-396 with C-terminal GFP) (from UniProt P31415 35-396)

binding [2]: binds
Substance: ssGFP-CASQ1 (CASQ1 amino acids 1-396 with EGFP between residues 49 and 50) (from UniProt P31415 35-396)

binding [3]: binds
Substance: ssGFP-CASQ1 S248/369E (from UniProt P31415 35-396)
